{"sequences": {"note": "By UniProt entry, the sequences of proteins in these tests, tags left out. Where a name states a change or a piece, a line headed by the entry shows the natural chain unless it says otherwise. Residues count along the entry.", "UniProt P19367, 255-274": "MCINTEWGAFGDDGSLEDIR", "UniProt Q8WVV9": "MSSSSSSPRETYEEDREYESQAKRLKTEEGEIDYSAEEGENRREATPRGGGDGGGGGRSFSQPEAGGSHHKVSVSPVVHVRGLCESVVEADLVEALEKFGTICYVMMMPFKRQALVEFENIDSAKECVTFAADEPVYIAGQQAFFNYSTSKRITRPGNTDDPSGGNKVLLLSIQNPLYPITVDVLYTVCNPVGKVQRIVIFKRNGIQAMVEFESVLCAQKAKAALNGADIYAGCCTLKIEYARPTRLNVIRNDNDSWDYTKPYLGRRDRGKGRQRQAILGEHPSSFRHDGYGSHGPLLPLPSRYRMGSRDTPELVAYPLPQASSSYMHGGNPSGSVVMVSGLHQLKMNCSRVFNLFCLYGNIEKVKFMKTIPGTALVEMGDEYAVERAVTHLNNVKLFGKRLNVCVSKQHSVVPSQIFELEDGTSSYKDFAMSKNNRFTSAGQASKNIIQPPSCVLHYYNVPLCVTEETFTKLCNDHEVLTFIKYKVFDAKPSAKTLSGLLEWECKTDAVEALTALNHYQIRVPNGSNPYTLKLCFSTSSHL", "UniProt Q12789": "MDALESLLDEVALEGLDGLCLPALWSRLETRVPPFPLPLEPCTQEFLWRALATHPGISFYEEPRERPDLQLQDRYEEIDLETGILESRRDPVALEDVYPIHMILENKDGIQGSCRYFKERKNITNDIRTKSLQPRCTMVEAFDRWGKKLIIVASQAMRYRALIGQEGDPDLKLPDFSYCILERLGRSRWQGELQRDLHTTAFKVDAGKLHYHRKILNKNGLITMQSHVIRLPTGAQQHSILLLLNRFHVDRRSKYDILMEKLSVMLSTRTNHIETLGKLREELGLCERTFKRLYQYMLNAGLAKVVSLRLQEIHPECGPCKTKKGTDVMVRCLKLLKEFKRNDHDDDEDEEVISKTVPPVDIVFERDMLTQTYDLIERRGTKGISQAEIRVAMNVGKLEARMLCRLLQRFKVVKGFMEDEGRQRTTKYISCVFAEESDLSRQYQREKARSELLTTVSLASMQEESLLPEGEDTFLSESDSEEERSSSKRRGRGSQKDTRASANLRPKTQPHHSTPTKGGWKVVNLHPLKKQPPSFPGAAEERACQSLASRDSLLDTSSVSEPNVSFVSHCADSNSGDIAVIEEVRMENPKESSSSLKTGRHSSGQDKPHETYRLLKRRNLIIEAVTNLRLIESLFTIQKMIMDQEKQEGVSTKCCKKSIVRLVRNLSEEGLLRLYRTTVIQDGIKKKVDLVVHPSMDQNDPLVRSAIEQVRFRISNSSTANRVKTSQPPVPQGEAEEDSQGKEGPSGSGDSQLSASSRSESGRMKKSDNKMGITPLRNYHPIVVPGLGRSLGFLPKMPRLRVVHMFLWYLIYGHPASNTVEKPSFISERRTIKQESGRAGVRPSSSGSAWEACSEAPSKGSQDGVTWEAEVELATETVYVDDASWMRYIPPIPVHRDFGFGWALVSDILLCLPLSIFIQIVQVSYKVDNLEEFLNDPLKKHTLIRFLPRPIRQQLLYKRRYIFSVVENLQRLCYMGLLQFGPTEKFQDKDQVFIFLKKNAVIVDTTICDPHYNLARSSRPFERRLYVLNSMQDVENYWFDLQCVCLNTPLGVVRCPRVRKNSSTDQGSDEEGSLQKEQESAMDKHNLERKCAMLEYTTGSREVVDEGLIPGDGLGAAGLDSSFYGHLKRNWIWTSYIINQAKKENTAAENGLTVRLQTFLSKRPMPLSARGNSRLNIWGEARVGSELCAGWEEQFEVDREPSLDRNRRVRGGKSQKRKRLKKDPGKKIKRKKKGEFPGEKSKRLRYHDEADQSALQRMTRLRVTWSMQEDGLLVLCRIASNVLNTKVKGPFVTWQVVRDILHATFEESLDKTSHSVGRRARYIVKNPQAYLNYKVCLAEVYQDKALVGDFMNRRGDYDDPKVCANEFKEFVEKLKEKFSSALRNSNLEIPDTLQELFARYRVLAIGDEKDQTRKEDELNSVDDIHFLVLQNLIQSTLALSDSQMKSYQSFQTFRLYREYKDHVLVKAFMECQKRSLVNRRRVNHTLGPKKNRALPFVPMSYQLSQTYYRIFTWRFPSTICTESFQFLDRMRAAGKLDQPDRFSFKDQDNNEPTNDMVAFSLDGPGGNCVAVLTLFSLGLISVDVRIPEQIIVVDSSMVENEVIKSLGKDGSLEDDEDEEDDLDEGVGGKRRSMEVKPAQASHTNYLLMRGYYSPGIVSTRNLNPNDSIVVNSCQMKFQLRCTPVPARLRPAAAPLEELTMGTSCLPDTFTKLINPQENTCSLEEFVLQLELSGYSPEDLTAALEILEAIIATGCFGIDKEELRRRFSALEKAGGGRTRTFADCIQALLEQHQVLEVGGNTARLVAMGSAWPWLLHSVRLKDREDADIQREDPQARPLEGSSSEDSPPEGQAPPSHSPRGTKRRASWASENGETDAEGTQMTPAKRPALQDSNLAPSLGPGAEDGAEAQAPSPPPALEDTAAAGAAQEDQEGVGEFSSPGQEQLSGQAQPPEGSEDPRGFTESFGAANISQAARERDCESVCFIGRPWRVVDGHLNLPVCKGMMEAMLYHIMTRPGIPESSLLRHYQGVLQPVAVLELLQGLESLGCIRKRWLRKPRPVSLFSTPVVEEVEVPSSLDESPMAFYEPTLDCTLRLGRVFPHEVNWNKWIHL", "UniProt Q9Y5Q9": "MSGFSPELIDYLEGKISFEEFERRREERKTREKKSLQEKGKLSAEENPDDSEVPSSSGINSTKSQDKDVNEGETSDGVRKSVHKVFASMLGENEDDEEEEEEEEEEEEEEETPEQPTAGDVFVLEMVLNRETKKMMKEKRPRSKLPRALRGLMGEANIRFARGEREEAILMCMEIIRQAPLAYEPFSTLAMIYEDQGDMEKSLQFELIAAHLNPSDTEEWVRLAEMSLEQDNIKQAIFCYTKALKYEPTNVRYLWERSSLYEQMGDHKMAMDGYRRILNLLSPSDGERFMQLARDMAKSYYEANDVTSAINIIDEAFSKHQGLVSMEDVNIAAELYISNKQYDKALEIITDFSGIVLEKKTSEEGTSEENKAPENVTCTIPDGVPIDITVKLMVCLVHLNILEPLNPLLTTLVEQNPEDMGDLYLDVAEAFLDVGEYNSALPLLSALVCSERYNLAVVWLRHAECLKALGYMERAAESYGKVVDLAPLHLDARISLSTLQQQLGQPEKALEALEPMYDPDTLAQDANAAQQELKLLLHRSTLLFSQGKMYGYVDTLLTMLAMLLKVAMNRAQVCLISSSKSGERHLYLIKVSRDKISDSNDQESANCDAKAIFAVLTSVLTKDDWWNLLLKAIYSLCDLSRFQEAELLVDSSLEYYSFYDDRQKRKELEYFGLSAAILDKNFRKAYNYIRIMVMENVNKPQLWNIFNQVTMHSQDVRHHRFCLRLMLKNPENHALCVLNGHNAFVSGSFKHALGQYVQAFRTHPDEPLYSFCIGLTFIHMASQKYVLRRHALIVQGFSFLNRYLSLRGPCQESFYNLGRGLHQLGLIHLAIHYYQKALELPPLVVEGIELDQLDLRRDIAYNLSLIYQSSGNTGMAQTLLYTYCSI", "UniProt Q9P2D3": "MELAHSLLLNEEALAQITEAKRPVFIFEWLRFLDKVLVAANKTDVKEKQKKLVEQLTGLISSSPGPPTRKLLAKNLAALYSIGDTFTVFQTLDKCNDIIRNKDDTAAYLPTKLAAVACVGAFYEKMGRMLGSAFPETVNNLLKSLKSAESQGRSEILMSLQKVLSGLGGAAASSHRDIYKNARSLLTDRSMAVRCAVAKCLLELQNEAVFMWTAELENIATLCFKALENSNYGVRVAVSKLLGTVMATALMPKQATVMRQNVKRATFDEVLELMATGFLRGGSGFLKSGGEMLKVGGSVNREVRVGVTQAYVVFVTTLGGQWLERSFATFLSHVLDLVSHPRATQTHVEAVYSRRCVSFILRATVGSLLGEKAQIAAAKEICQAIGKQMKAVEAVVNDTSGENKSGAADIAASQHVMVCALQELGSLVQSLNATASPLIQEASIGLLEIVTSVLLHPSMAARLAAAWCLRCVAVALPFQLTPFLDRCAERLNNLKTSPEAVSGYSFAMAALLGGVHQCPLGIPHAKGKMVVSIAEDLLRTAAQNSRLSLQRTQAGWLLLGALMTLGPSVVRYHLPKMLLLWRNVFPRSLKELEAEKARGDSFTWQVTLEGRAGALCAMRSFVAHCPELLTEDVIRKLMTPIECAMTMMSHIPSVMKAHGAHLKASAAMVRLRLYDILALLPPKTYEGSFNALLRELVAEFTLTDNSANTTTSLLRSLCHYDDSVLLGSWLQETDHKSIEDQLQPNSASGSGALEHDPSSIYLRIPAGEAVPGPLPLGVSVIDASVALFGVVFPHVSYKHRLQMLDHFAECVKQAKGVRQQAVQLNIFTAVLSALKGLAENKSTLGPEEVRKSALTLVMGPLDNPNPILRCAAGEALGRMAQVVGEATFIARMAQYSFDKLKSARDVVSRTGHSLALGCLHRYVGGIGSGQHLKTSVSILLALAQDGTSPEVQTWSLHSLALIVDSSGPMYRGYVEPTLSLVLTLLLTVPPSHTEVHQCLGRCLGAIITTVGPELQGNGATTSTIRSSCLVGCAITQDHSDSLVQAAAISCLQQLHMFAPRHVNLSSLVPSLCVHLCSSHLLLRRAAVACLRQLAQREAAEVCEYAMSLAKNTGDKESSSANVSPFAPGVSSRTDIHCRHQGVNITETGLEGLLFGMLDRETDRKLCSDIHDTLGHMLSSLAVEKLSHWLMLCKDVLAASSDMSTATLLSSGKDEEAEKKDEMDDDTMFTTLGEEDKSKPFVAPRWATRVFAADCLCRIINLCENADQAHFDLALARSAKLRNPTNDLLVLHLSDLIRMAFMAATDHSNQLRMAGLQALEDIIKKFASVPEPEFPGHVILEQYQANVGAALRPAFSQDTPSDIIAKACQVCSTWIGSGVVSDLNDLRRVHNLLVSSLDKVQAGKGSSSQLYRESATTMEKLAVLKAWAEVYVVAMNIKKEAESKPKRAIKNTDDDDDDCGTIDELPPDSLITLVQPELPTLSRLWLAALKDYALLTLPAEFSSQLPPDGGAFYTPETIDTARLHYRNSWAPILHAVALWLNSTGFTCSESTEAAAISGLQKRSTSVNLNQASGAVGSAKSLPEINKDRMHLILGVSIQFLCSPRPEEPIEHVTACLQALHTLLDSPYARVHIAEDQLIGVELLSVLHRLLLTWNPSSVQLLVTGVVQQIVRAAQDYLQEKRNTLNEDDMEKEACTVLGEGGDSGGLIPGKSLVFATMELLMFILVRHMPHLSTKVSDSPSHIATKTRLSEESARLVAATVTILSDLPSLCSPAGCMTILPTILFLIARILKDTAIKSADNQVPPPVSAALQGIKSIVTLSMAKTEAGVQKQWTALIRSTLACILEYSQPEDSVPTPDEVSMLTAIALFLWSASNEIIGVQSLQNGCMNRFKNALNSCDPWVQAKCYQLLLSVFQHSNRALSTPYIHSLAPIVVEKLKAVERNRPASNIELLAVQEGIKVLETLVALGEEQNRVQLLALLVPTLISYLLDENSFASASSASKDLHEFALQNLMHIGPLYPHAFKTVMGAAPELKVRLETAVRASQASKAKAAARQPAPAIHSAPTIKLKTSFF", "UniProt Q1KMD3, 33-58": "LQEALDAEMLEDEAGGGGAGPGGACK", "UniProt Q5T447": "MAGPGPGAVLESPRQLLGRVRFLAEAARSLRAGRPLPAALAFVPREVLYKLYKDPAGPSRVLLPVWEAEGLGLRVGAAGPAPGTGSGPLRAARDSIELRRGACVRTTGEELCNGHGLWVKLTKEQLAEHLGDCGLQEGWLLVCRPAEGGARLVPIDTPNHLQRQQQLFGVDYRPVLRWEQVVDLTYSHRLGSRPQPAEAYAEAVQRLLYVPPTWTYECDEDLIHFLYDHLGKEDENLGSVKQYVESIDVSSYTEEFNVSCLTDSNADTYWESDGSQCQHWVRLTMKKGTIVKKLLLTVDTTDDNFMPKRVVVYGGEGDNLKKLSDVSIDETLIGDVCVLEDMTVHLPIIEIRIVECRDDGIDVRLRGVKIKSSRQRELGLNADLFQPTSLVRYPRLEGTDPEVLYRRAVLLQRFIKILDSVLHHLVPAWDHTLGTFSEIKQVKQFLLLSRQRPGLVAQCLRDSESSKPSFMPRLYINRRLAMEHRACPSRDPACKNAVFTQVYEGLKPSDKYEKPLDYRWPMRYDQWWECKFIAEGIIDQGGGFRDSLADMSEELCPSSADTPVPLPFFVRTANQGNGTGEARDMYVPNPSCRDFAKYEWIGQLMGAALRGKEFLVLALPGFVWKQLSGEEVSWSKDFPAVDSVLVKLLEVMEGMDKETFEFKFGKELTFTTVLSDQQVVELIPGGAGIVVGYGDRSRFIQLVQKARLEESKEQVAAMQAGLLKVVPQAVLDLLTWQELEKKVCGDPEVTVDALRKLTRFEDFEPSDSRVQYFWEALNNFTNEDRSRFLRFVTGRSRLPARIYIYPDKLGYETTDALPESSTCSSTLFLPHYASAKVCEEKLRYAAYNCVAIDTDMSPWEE", "UniProt Q15751, 1427-1448": "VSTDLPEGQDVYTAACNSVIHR"}, "source": "the supplement of paper PMC11732987", "about": "“Enantioselective OTUD7B fragment discovery through chemoproteomics screening and high-throughput optimisation” (Communications Chemistry, 2025)", "note": "Some of the results follow. The data scatter; read single values as rough.", "data": [{"compound": "ClCC(=O)N[C@@H]1CCCc2ccccc12", "assay": "log2 mean competition ratio of IA-DTB cysteine labelling (DMSO/compound) (log2 ratio); higher = stronger cysteine engagement by compound", "conditions": "50 µM; treatment time: 4 h; cell line lysate: HEK293T", "protocol": "(§1)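 IA-DTB competitive cysteine chemoproteomics in HEK293T RIPA lysate. Lysates were treated with compound 29 or 30 at 50 or 200 µM for 4 h, then IA-DTB (500 µM, 1 h), trypsin-digested, NeutrAvidin-enriched and analysed by diaPASEF. Competition ratio = intensity DMSO / intensity compound (n=4 treated, n=64 DMSO); binding: mean log2 CR ≥ 1 and p ≤ 0.05 plus QC filters. Target is the cysteine site.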", "values": [{"target": "HMCES C18 (UniProt Q96FZ2)", "log2 mean competition ratio": -0.0148}, {"target": "HK1 C256 (UniProt P19367)", "log2 mean competition ratio": -0.0978}, {"target": "HELLS C205 (UniProt Q9NRZ9)", "log2 mean competition ratio": 0.0902}, {"target": "HNRNPLL C405 (UniProt Q8WVV9)", "log2 mean competition ratio": 0.847}, {"target": "HNRNPLL C84 (UniProt Q8WVV9)", "log2 mean competition ratio": 0.252}, {"target": "HLTF C442 (UniProt Q14527)", "log2 mean competition ratio": -0.223}, {"target": "HNRNPL C452", "log2 mean competition ratio": -0.156}, {"target": "HOXB8 C215", "log2 mean competition ratio": -0.211}, {"target": "GTF3C1 C114 (UniProt Q12789)", "log2 mean competition ratio": -0.0233}, {"target": "GTF3C4 C376 (UniProt Q9UKN8)", "log2 mean competition ratio": 0.3}, {"target": "HK1 C886 (UniProt P19367)", "log2 mean competition ratio": 0.107}, {"target": "GTF3C3 C239 (UniProt Q9Y5Q9)", "log2 mean competition ratio": 0.103}, {"target": "HOXA11 C82", "log2 mean competition ratio": 0.0811}, {"target": "GTF2A2 C98 (UniProt P52657)", "log2 mean competition ratio": 0.0719}, {"target": "HEATR5B C810 (UniProt Q9P2D3)", "log2 mean competition ratio": -0.121}, {"target": "HNRNPUL2 C57 (UniProt Q1KMD3)", "log2 mean competition ratio": -0.206}, {"target": "GTF3C5 C242 (UniProt Q9Y5Q8)", "log2 mean competition ratio": 0.377}, {"target": "HECTD3 C592 (UniProt Q5T447)", "log2 mean competition ratio": -0.163}, {"target": "HJURP C348 (UniProt Q8NCD3)", "log2 mean competition ratio": 0.058}, {"target": "HGS C75 (UniProt O14964)", "log2 mean competition ratio": 0.0757}, {"target": "HOXB13 C211", "log2 mean competition ratio": 0.174}, {"target": "HOOK1 C652 (UniProt Q9UJC3)", "log2 mean competition ratio": 0.17}, {"target": "HK2 C813 (UniProt P52789)", "log2 mean competition ratio": 0.239}, {"target": "HMGCR C382 (UniProt P04035)", "log2 mean competition ratio": -0.252}, {"target": "HECTD4 C1299", "log2 mean competition ratio": -0.0888}, {"target": "HERC1 C4837 (UniProt Q15751)", "log2 mean competition ratio": 0.147}, {"target": "HDLBP C940", "log2 mean competition ratio": -0.149}, {"target": "GXYLT1 C196 (UniProt Q4G148)", "log2 mean competition ratio": 0.195}, {"target": "HERC2 C349 (UniProt O95714)", "log2 mean competition ratio": -0.0102}, {"target": "HECTD4 C1912", "log2 mean competition ratio": 0.0297}, {"target": "HEXA C522 (UniProt P06865)", "log2 mean competition ratio": 0.205}, {"target": "HEATR5B C1896 (UniProt Q9P2D3)", "log2 mean competition ratio": 0.376}, {"target": "HCFC1 C135 (UniProt P51610)", "log2 mean competition ratio": -0.322}, {"target": "GTF3C1 C179 (UniProt Q12789)", "log2 mean competition ratio": -0.182}, {"target": "HERC1 C1442 (UniProt Q15751)", "log2 mean competition ratio": -0.206}, {"target": "GTF3C3 C172 (UniProt Q9Y5Q9)", "log2 mean competition ratio": -0.262}]}, {"compound": "ClCC(=O)N[C@@H]1CCCc2ccccc12", "assay": "log2 mean competition ratio of IA-DTB cysteine labelling (DMSO/compound) (log2 ratio); higher = stronger cysteine engagement by compound", "conditions": "200 µM; treatment time: 4 h; cell line lysate: HEK293T", "protocol": "as §1", "values": [{"target": "HMCES C18 (UniProt Q96FZ2)", "log2 mean competition ratio": -0.15}, {"target": "HK1 C256 (UniProt P19367)", "log2 mean competition ratio": 0.602}, {"target": "HELLS C205 (UniProt Q9NRZ9)", "log2 mean competition ratio": 0.0634}, {"target": "HNRNPLL C405 (UniProt Q8WVV9)", "log2 mean competition ratio": 0.0787}, {"target": "HNRNPLL C84 (UniProt Q8WVV9)", "log2 mean competition ratio": -0.221}, {"target": "HLTF C442 (UniProt Q14527)", "log2 mean competition ratio": 0.241}, {"target": "HNRNPL C452", "log2 mean competition ratio": -0.23}, {"target": "HOXB8 C215", "log2 mean competition ratio": -0.0939}, {"target": "GSTM2 C115 (UniProt P28161)", "log2 mean competition ratio": 0.0999}, {"target": "GTF3C1 C114 (UniProt Q12789)", "log2 mean competition ratio": 0.235}, {"target": "GTF3C4 C376 (UniProt Q9UKN8)", "log2 mean competition ratio": -0.421}, {"target": "HK1 C886 (UniProt P19367)", "log2 mean competition ratio": -0.191}, {"target": "GTF3C3 C239 (UniProt Q9Y5Q9)", "log2 mean competition ratio": -0.0794}, {"target": "HOXA11 C82", "log2 mean competition ratio": 0.000971}, {"target": "GTF2A2 C98 (UniProt P52657)", "log2 mean competition ratio": -0.145}, {"target": "HEATR5B C810 (UniProt Q9P2D3)", "log2 mean competition ratio": -0.174}, {"target": "HNRNPUL2 C57 (UniProt Q1KMD3)", "log2 mean competition ratio": -0.0571}, {"target": "GTF3C5 C242 (UniProt Q9Y5Q8)", "log2 mean competition ratio": 0.266}, {"target": "HECTD3 C592 (UniProt Q5T447)", "log2 mean competition ratio": 0.0383}, {"target": "HJURP C348 (UniProt Q8NCD3)", "log2 mean competition ratio": 0.0941}, {"target": "HGS C75 (UniProt O14964)", "log2 mean competition ratio": -0.187}, {"target": "HOXB13 C211", "log2 mean competition ratio": 0.52}, {"target": "HOOK1 C652 (UniProt Q9UJC3)", "log2 mean competition ratio": -0.158}, {"target": "HK2 C813 (UniProt P52789)", "log2 mean competition ratio": 0.416}, {"target": "HMGCR C382 (UniProt P04035)", "log2 mean competition ratio": -0.321}, {"target": "HECTD4 C1299", "log2 mean competition ratio": 0.0627}, {"target": "HERC1 C4837 (UniProt Q15751)", "log2 mean competition ratio": 0.237}, {"target": "HDLBP C940", "log2 mean competition ratio": 0.134}, {"target": "GXYLT1 C196 (UniProt Q4G148)", "log2 mean competition ratio": 0.727}, {"target": "HERC2 C349 (UniProt O95714)", "log2 mean competition ratio": 0.0914}, {"target": "HECTD4 C1912", "log2 mean competition ratio": 0.0703}, {"target": "HEXA C522 (UniProt P06865)", "log2 mean competition ratio": -0.365}, {"target": "HEATR5B C1896 (UniProt Q9P2D3)", "log2 mean competition ratio": 0.0792}, {"target": "HCFC1 C135 (UniProt P51610)", "log2 mean competition ratio": -0.626}, {"target": "HERC1 C1442 (UniProt Q15751)", "log2 mean competition ratio": -0.145}, {"target": "GTF3C3 C172 (UniProt Q9Y5Q9)", "log2 mean competition ratio": 0.273}]}]}
